# Data reported in article PMC5685703.
# Amino acid sequences for entries named in this document (tags omitted). A change or cut given only in a name is not applied to a line headed by its entry.
# UniProt P35226: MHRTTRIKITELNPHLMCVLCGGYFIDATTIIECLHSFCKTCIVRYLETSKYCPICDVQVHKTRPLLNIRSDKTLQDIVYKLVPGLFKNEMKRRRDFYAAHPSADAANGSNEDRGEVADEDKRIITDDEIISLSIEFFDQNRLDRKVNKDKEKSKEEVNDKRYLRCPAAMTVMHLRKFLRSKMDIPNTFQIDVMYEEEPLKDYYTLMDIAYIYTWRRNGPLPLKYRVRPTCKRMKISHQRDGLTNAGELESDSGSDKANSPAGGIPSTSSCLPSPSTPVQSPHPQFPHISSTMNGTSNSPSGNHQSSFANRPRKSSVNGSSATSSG
# UniProt Q13535: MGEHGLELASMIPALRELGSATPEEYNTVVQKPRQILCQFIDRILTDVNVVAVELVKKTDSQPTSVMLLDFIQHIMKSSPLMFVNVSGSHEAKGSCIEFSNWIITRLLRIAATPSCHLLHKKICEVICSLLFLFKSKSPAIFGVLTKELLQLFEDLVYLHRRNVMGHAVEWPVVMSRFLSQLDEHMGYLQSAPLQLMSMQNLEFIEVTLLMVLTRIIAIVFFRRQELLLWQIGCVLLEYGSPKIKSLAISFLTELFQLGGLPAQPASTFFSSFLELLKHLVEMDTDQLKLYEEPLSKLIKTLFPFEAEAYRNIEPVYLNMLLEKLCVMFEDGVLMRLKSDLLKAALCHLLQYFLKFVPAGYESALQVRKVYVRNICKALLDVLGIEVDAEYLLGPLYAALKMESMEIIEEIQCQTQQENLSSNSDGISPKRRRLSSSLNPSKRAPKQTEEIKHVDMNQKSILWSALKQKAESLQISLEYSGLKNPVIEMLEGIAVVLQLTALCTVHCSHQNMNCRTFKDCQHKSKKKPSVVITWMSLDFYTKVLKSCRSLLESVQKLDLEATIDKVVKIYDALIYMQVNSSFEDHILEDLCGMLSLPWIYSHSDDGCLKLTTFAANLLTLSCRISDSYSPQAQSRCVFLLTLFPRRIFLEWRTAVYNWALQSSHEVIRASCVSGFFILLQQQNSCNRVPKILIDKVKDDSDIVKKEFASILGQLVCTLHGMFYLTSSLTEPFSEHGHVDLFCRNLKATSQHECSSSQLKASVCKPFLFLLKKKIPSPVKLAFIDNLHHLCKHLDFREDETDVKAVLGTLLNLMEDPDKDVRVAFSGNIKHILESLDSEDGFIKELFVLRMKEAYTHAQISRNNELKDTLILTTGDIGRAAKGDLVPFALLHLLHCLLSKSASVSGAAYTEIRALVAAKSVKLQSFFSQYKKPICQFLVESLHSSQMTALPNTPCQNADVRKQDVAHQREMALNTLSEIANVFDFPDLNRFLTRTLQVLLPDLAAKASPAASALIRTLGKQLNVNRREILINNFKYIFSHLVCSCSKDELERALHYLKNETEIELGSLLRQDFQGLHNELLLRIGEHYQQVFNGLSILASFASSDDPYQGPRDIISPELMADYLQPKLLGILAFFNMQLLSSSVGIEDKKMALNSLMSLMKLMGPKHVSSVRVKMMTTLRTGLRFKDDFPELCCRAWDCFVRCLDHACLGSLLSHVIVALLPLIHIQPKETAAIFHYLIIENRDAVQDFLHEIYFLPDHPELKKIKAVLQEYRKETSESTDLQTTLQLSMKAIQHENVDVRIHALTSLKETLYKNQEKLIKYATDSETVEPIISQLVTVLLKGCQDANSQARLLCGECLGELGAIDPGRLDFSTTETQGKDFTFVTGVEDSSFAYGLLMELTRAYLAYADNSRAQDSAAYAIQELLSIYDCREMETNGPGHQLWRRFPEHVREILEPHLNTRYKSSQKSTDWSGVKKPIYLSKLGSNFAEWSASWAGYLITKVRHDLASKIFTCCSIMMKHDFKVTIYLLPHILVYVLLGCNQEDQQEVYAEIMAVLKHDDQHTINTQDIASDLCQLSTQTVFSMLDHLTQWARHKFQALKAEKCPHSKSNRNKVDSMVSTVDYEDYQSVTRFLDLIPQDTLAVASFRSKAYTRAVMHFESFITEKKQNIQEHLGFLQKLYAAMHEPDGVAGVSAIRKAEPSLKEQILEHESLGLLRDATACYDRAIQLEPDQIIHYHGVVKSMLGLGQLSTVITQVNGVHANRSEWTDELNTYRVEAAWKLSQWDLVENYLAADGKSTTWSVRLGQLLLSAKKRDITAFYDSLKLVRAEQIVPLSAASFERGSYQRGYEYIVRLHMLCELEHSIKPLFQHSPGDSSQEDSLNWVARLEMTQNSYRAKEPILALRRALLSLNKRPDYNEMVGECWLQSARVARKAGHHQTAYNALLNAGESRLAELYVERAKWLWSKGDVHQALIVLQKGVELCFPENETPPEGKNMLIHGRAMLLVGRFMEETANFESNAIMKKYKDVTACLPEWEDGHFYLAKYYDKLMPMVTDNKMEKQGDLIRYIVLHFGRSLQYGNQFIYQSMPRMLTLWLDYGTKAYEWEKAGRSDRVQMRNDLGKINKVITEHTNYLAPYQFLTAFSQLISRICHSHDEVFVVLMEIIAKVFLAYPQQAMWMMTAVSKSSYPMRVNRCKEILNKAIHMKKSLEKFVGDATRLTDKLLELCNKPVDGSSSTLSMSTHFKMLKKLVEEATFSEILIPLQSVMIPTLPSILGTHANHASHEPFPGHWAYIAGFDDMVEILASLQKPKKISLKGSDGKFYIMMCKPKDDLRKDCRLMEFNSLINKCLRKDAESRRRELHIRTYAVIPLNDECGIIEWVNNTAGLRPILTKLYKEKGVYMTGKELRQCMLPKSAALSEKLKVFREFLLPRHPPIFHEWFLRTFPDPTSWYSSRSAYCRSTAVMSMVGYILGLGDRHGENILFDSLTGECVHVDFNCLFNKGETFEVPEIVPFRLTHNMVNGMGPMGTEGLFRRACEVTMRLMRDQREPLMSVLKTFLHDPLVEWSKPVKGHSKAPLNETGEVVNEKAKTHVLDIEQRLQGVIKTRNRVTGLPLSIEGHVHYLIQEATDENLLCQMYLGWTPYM
# Experiments:
# BMI1ΔRF = BMI1ΔRF (UniProt P35226); experiment: co-IP; MCF7 lines stably expressing FLAG-tagged BMI1 deletion mutants, without or with HU; lysates treated with benzonase 1 U/μl on ice for 1 hour; IP with monoclonal anti-FLAG (M2); Western blot for ATR, TOPBP1 and the mutants (polyclonal anti-FLAG)
# BMI1ΔHT = BMI1ΔHT (UniProt P35226); experiment: as above
# BMI1ΔNLS = BMI1ΔNLS (UniProt P35226); experiment: as above
# BMI1ΔPS = BMI1ΔPS (UniProt P35226); experiment: as above
# [1] = target: ATR (endogenous, MCF7 cells) (human (endogenous in MCF7)) (UniProt Q13535); experiment: co-IP; MCF7 BMI1ΔNLS cells; lysate treated with benzonase 1 U/μl on ice for 1 hour; IP with anti-ATR; Western blot with polyclonal anti-FLAG
substance,measurement,setting,value
"ATR (endogenous, MCF7 cells) (from UniProt Q13535 1-2644)",binding,BMI1ΔRF,binds
same,binding,BMI1ΔHT,no binding
same,binding,BMI1ΔNLS,binds
same,binding,BMI1ΔPS,no binding
BMI1ΔNLS (from UniProt P35226),binding,[1],binds

# No constants are given. Whether binding was seen depends on the method and setting. In cells and extracts the contact can be indirect. For some assays here: Binding calls can cover weak binding; strength is not graded here.
